Patent publication US20230359121A1, “LITHOGRAPHIC PRINTING PLATE PRECURSOR, METHOD OF PREPARING LITHOGRAPHIC PRINTING PLATE, AND LITHOGRAPHIC PRINTING METHOD” (FUJIFILM Corporation, priority 2022, published 2023)
Several values for one entry are separate records, joined by “and”; a condition that tells them apart may be missing. Identical values can stand only once.

Tests used:
[1] = Ring-opening rate and λmax of chromogenic agent; type: physicochemical; details: for ring-opening rate: 1 molar equivalent of acid added; for maximal absorption wavelength (λmax): colored substance, visible region 380 nm to 750 nm
[2] = Molar absorption coefficient ε of colored substance generated from chromogenic agent; type: physicochemical; details: at maximal absorption wavelength

Structure (SMILES) | ring-opening rate [1] | maximal absorption wavelength (λmax) [1] | ε (molar absorption coefficient of colored substance) [2]
CCN(CCC(C)C)c1ccc2c(c1)Oc1cc(C)c(Nc3ccccc3)cc1C21OC(=O)c2ccccc21 (stereo not drawn) [Example C-2] | 76% | 450 nm and 590 nm | 32,000 and 20,000
COc1ccc(N(c2ccc3c(c2)Oc2cc(N(c4ccc(OC)cc4)c4ccc(OC)cc4C)ccc2C32OC(=O)c3ccccc32)c2ccc(OC)cc2C)cc1 [Example C-1] | 75% | 590 nm | 68,000
CCOc1ccc(N(c2ccc3c(c2)Oc2cc(N(c4ccc(OCC)cc4)c4ccc(OC)cc4C)ccc2C32OC(=O)c3ccccc32)c2ccc(OC)cc2C)cc1 [Example C-4] | 68% | 592 nm | 68,000
CCCCn1c(C)c(C2(c3ccc(N(C)C)cc3)OC(=O)c3cc(N(C)C)ccc32)c2ccccc21 (stereo not drawn) [Example C-3] | 58% | 590 nm | 74,000
